SMILES strings stand for the structures. The full ranking holds about 1,500 compounds; the median of “activity” is about 2, and the lowest 2% start at about -18. The list shows a part of the results. Active and inactive are the calls of the source.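 How the source made its calls: active means inhibition of at least 40% at 10 µM; inconclusive means no clear call, values can overlap the other calls; inactive means the rest.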

Chains of the proteins cited; added tags and fusions are not shown. Lines headed by an entry give the natural chain unless they say otherwise; changes in a name come on top.
UniProt O00391: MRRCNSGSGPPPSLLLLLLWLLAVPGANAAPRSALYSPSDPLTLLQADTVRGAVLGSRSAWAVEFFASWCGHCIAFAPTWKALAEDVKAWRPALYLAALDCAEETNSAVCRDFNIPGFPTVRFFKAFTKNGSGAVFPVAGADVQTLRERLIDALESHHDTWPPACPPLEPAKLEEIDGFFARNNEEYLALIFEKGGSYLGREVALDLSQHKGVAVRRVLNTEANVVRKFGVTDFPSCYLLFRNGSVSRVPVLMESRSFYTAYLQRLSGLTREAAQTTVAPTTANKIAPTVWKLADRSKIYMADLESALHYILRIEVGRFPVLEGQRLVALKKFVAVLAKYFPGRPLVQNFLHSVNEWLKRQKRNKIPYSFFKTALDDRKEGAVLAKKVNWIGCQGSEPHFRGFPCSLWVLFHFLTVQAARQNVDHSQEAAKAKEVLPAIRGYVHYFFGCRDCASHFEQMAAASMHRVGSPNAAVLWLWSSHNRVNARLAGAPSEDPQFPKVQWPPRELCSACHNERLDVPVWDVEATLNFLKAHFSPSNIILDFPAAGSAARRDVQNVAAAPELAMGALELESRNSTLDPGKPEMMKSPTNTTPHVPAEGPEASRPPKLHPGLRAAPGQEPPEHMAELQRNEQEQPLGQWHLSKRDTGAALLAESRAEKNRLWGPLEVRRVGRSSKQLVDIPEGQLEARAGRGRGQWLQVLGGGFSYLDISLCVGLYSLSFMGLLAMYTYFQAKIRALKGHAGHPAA

In this experiment the target is Sulfhydryl oxidase 1 (Homo sapiens) (UniProt O00391). Briefly: QSOX1 enzyme inhibitors, confirmation, biochemical, ROS-Glo luminescence, single concentration (AID 1347421).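 Further: 0% = DMSO wells with enzyme and 100% = wells lacking QSOX1 enzyme.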 The conditions noted are these: recombinant hQSOX1, RNase A substrate, ROS-Glo H2O2 luminescence; at 10 µM.
With `CCN1CCN(CC(O)COc2cccc(CNCCCSC)c2)CC1` (configuration not stated), the activity was found to be 9.1%.

Take `Cc1cccn2c(=O)c3cc(C(=O)N4CCN(C)CC4)n(C)c3nc12`: the activity was found to be 7.5%.

For the compound `O=C(CCCn1nnnc1CN1CCc2ccccc2C1)NCCc1cscn1`, the activity worked out at 2.9%.

In the case of `Cc1c(CN2CCOC(Cc3ccccc3Cl)C2)cnn1C` (configuration not stated), the activity was 2.2%.

`CCOCCn1ccc(-c2cccc(-c3cc(N(C)C)ncn3)c2)n1`: the activity stood at 5.5%.

Turning to `CCS(=O)(=O)c1ncc(CN(CCO)Cc2ccccc2)n1Cc1ccccc1`, the activity stood at 3.5%.

Take `CN(C)c1cc(N2C[C@H]3OC(=O)N(CCCc4ccc(F)cc4)[C@H]3C2)ncn1`: the activity was 4.7%.

On to `COC(=O)c1ccc(-c2nc(CN3CCCCC3c3nccs3)c(C)o2)cc1` (configuration not stated), for which the activity is 0.5%.

Consider `O=C(CCn1cncn1)N1CCc2onc(-c3ccc(C(F)(F)F)cc3)c2C1`, for which the activity was 4.5%.

In the case of `CCOC(=O)C1(Cc2ccc(OC)cc2)CCN(C(=O)c2cncs2)CC1`, the activity is 8.7%.

For the compound `O=C(CSc1ncc(-c2ccccc2)nn1)Nc1nccs1`, the activity is inactive: -15.2%.

In the case of `O=C(CCC1CCCN(C(=O)c2ccco2)C1)NCc1ccccc1F` (configuration not stated), the activity is inactive: -0.1%.

`O=C(c1ccc(Cl)s1)N1CCC2(CCCN(CC3CC3)C2=O)C1` (configuration not stated): the activity came to 10.4%.

For the compound `CSCC(=O)N1CCCC(Nc2ccc(C)c(C)c2)C1` (configuration not stated), the activity was found to be 1.4%.

With `COc1cc(CNCc2ccccc2C)ccc1OCC(O)CN1CCOCC1` (configuration not stated), the activity was 1.7%.

As to `O=C(c1cc(-c2cn[nH]c2)nc2cc(F)ccc12)N1CC2C[C@@H]3CC1C[C@H](C2)C3`, the activity came out at 3.1%.

`CN(Cc1cccc(OCC(O)CN(C)C2CCCCC2)c1)C1CCOCC1` (configuration not stated): the activity turned out to be 8.4%.

As for `CCc1cc(C(=O)NC2CC(=O)N(CC(C)(C)C)C2)on1` (configuration not stated), the activity came to 3.8%.

Consider `CN(Cc1n[nH]c2c1CCCCC2)CC1(c2cccc(F)c2)CCOC1` (configuration not stated), for which the activity is 4%.

As for `Cc1cc(Cl)ccc1C(=O)C1CCCN(C(=O)C(=O)CC(C)C)C1` (configuration not stated), the activity amounted to 0.4%.

On to `O=C(Cc1cn2ccsc2n1)N1CCOC(Cc2ccc(F)cc2)C1` (configuration not stated), for which the activity came out at 1.3%.

For the compound `NC(=O)C1CCN(CC(O)COc2ccc(-c3ccccc3)cc2)CC1` (configuration not stated), the activity is 3.4%.

Consider `O=C(Cn1cccn1)NC1CCCN(C2CCCCCC2)C1` (configuration not stated), for which the activity is inactive: -5.7%.

On to `Cc1ccc(S(=O)(=O)CC(=O)N2CCN(c3ccccc3)CC2)cc1`, for which the activity was inactive: -17%.

As for `CCOc1ccc(NC(=O)NC2CCS(=O)(=O)C2)cc1` (configuration not stated), the activity is inactive: -11.5%.

For the compound `COc1ccc(Cl)cc1NC(=O)CCC1CCCN(C(=O)CCc2cn[nH]c2)C1` (configuration not stated), the activity was 5.7%.

Regarding `C=CCN1CC(c2nc(-c3cnn(C)c3)c(C)[nH]2)CC1=O` (configuration not stated), the activity was determined as 2%.

As for `COCc1ccc(CNC2CC(=O)N(Cc3cccc4ccccc34)C2)o1` (configuration not stated), the activity is inactive: -3.8%.

Take `COc1ccccc1OCCn1ncc(N2CCC(CN)CC2)cc1=O`: the activity amounted to 0.2%.

As to `CCN(CC)C1CCN(Cc2ccc(-c3nc(C)c(F)c(=O)[nH]3)cc2)C1` (configuration not stated), the activity was inactive: -4.5%.

Consider `COc1ccc(OC)c(Cc2nnc(CCC(=O)N(C)CCC3CCCCO3)o2)c1` (configuration not stated), for which the activity was inactive: -0.8%.

For `CC(C)Oc1ccc(C(=O)N2CCC(CCC(=O)NC3CC3)CC2)cc1`, the activity turned out to be 3.9%.

For the compound `COc1cccc(-c2n[nH]c3c2CN(CCc2ccccc2)CC3)c1`, the activity came out at 5.1%.

On to `COc1ccccc1CCc1nnc(CCC(=O)NCCc2ccco2)o1`, for which the activity stood at 3.3%.

`CC(=O)n1nc(NCc2ccccc2)nc1NCc1ccccc1`: the activity was inactive: -22%.

Regarding `COc1ccc(CNCCc2ccncc2)c(OCC(O)CN2CCCC2)c1` (configuration not stated), the activity was inactive: 0%.

As to `CCC1COCCN1C(=O)c1cc(-c2cnn(C)c2)nc2cc(C)ccc12` (configuration not stated), the activity was 1.5%.

In the case of `CC(C)CN(CC(C)C)C(=O)Nc1ccccc1F`, the activity was 8.8%.

Turning to `COc1cccc(-c2cccc(N3CCC(NC(C)c4cnn(C)c4)CC3)c2)c1` (configuration not stated), the activity was found to be 0.2%.

With `CCOC(=O)N1CCC(Nc2nncc(-c3ccc(C)o3)n2)CC1`, the activity was 6.3%.

Regarding `Cn1ncc(NCC2(c3cccc(F)c3)CCOC2)n1` (configuration not stated), the activity was 8.7%.

`Cc1nonc1CN(C)Cc1cccc(OCC(O)CN2CCOCC2)c1` (configuration not stated): the activity was 8.2%.

In the case of `COc1cccc(C(=O)C2CCCN(Cc3ccc4cccc(F)c4n3)C2)c1` (configuration not stated), the activity was inactive: -23.5%.

For the compound `CCN1CCCC1CNC(=O)c1ccc(OC2CCN(C(=O)CCOC)CC2)cc1` (configuration not stated), the activity is inactive: -2.5%.

As for `COC(=O)C1CCCCN1C(=O)c1ccc2oc(C(C)C)nc2c1` (configuration not stated), the activity was found to be 4.4%.

For `O=C(NCC(O)CO)c1ccc(OC2CCN(CCc3ccccc3)CC2)cc1` (configuration not stated), the activity was inactive: -0.6%.

For `O=C(Cc1ccccc1F)Nc1ccc2c(c1)CN(Cc1ccoc1)CC2`, the activity was inactive: -1.9%.

On to `O=C(CCn1cnnn1)N1CCc2[nH]nc(-c3ccc(C(F)(F)F)cc3)c2C1`, for which the activity came out at 4.7%.

For `O=C(c1cc(-c2cnn(CCO)c2)nc2cc(F)ccc12)N1C[C@H]2CC[C@H]1C2`, the activity worked out at 1.1%.

For `CN(Cc1cccc(OCC(O)CN2CCOCC2)c1)Cc1ccncn1` (configuration not stated), the activity came out at 11.2%.

In the case of `Cc1cccc(CN2CCCC3(CCN(C(=O)C4CCCCC4)C3)C2=O)c1` (configuration not stated), the activity turned out to be 6.9%.

For the compound `COc1cc(CNCCCSC)ccc1OCC(O)CN1CCCC1` (configuration not stated), the activity is inactive: -1.3%.

As for `O=C(CCC1CCN(Cc2cc3ccccc3s2)CC1)N1CCOCC1`, the activity is 4.3%.

Consider `O=C(CCc1ccsc1)N1CCOC(Cc2ccccc2Cl)C1` (configuration not stated), for which the activity was 20.5%.

As to `O=C1N(CC2CC2)CCCC12CCN(Cc1cccc(-n3cccn3)c1)C2` (configuration not stated), the activity was inactive: -0.7%.

For the compound `O=C(NCCc1ccc(Cl)cc1)c1cccc(-n2cnnc2)c1`, the activity was inactive: -1%.

Take `C=CCC1(CC=C)CCCN1C(=O)c1cn(CC2COc3ccccc3O2)nn1` (configuration not stated): the activity is inactive: -0.3%.

As to `O=C(Nc1ccc(S(=O)(=O)NCC2CCCO2)cc1)N1CCCC1` (configuration not stated), the activity stood at 4.9%.

Regarding `O=C(CCc1ccncc1)N1CCOC(Cc2ccccc2Cl)C1` (configuration not stated), the activity was found to be 3.1%.

`O=C(NCCCn1nnc2ccccc21)C1CCC(=O)N(CCN2CCOCC2)C1` (configuration not stated): the activity is inactive: -0.4%.

As for `COC(=O)C1CCN(CC(O)COc2cccc(CN(C)Cc3cccnc3)c2)CC1` (configuration not stated), the activity stood at 4.5%.

As to `Fc1cccc(C2(CNc3ccnn3Cc3ccco3)CCOC2)c1` (configuration not stated), the activity is 2.5%.

As for `CC(C)(C)CN1CCCC2(CCN(Cc3nc(-c4ccccc4)no3)C2)C1=O` (configuration not stated), the activity was determined as 3.2%.

Consider `COc1ccc(C(=O)C2CCCN(Cc3ccc4cc(F)ccc4n3)C2)cc1OC` (configuration not stated), for which the activity is 1.1%.

In the case of `c1cncc(CN2CCN(c3nc4nonc4nc3N3CCOCC3)CC2)c1`, the activity amounted to 1.4%.

Turning to `Cc1ccc(S(=O)(=O)NCc2cccs2)cc1C`, the activity was found to be 0.8%.

Regarding `COc1ccc(S(=O)(=O)N2CCCC(C(=O)NC3CC3)C2)cc1OC` (configuration not stated), the activity was inactive: -18.9%.
